Experimental data: PubChem BioAssay AID686938 (Drosophila RNAi Screening Center, 2013)
Screen: 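Fly genes required for calcium entry once internal stores are emptied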 (primary screen). Cell system: Drosophila S2R+ cells. Reagent: long dsRNA against Drosophila genes, about 0.25 µg dsRNA per well, roughly 10,000 cells. Duration: 5 days of knock-down before the calcium assay. Challenge: thapsigargin (SERCA pump blocker) to empty calcium stores; entry signal taken 4 min after adding it. Read-out: 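Per-well fluo-4 fluorescence in two replicates, unnormalised, measured in resting cells and 4 min after store depletion by the SERCA blocker thapsigargin; ratio of the two present in few wells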. Scale: calcium entry signal: higher = stronger calcium signal after store depletion; entry to resting ratio: higher = more calcium entry relative to resting level; resting calcium signal: higher = higher resting calcium signal. Call rule: 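Called when the plate z-score of the entry-to-rest ratio, mean of duplicates, falls below −3; wells with low overall dye signal (Fmax z below −2) or more than five off-targets excluded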. Meaning of the calls: active = strongly reduced calcium entry; inactive = no strong reduction.
In all, the deposit lists about 23,000 reagents; shown is an unselected part of those with a known target gene and a result. Of all reagents, 75 (0.33%) are marked active. 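Raw plate signals without normalisation; calls rest on plate z-scores that were not deposited; ratio present for only 364 wells.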 A number with no mark means an inactive call. A plus sign joins genes that one reagent is predicted to hit. The record does not give: the dose of the treatment.

| predicted target | dsRNA | calcium entry signal, replicate 1 (fluorescence units) | calcium entry signal, replicate 2 (fluorescence units) | entry to resting ratio | resting calcium signal, replicate 1 (fluorescence units) | resting calcium signal, replicate 2 (fluorescence units) |
| --- | --- | --- | --- | --- | --- | --- |
| Pepck2 | DRSC06013 | 5.81e7 | 6.45e7 | – | 2.33e7 | 2.89e7 |
| TTLL12 | DRSC06555 | 2.70e7 | 2.99e7 | – | 1.22e7 | 1.35e7 |
| CG9673 | DRSC20202 | 4.17e7 | 3.14e7 | – | 2.03e7 | 1.39e7 |
| Ance | DRSC01865 | 4.54e7 | – | – | 2.09e7 | – |
| Cyp313a4 | DRSC16627 | 3.79e7 | 4.06e7 | – | 1.90e7 | 2.03e7 |
| asRNA:CR43430 + hts | DRSC07629 | 5.08e7 | 4.69e7 | – | 2.26e7 | 2.48e7 |
| CG9555 | DRSC03264 | 2.24e7 | 3.22e7 | – | 1.07e7 | 1.42e7 |
| FANCI | DRSC06416 | 3.61e7 | 2.78e7 | – | 1.66e7 | 1.56e7 |
| CR10991 | DRSC12156 | 4.50e7 | 3.76e7 | – | 2.31e7 | 1.81e7 |
| asRNA:CR43426 | DRSC11587 | 3.59e7 | 3.04e7 | – | 1.83e7 | 1.44e7 |
| Elys | DRSC19571 | 3.04e7 | 3.20e7 | – | 1.59e7 | 1.49e7 |
| RpL19 | DRSC04649 | 6.46e6 | – | – | 5.77e6 | – |
| Nepl13 | DRSC15632 | 4.01e7 | 5.48e7 | – | 1.86e7 | 2.26e7 |
| Tre1 | DRSC18726 | 1.90e7 | 2.94e7 | – | 1.17e7 | 1.70e7 |
| GstO3 | DRSC10710 | 2.70e7 | 3.28e7 | – | 1.37e7 | 1.40e7 |
| Nplp3 | DRSC09944 | 3.47e7 | 5.05e7 | – | 1.63e7 | 2.37e7 |
| CG7650 | DRSC10898 | 6.92e7 | 2.35e7 | – | 2.73e7 | 1.17e7 |
| croc | DRSC11884 | 2.54e7 | 3.24e7 | – | 1.19e7 | 1.49e7 |
| RpS15Ab + RpS15Aa | DRSC06129 | 1.23e7 | 4.39e7 | – | 9.00e6 | 1.88e7 |
| RpS15Ab + RpS15Aa | DRSC19831 | 1.37e7 | 1.52e7 | – | 1.03e7 | 1.11e7 |
| Ggamma1 | DRSC07435 | 3.90e7 | 4.55e7 | – | 1.70e7 | 2.07e7 |
| UQCR-C2 | DRSC10405 | 4.84e7 | 8.47e7 | – | 2.41e7 | 3.03e7 |
| CG15747 | DRSC19713 | 2.86e7 | 2.64e7 | – | 1.63e7 | 1.50e7 |
| CG3625 | DRSC00008 | 1.46e7 | 2.52e7 | – | 7.81e6 | 1.06e7 |
| CG3625 | DRSC00621 | 3.33e7 | – | – | 1.91e7 | – |
| JMJD4 | DRSC03025 | 4.01e7 | – | – | 1.97e7 | – |
| pes | DRSC03033 | 2.98e7 | 3.90e7 | – | 1.28e7 | 1.68e7 |
| CG13850 | DRSC14700 | 3.36e7 | 3.11e7 | – | 1.64e7 | 1.53e7 |
| Cirl | DRSC07227 | 3.56e7 | 2.99e7 | – | 1.98e7 | 1.76e7 |
| Cirl | DRSC21942 | 3.91e7 | 7.00e7 | – | 1.92e7 | 3.77e7 |
| Cirl | DRSC23235 | 4.03e7 | 4.20e7 | – | 2.25e7 | 1.85e7 |
| wol | DRSC03077 | 5.57e7 | – | – | 2.51e7 | – |
| Sgt | DRSC02812 | 4.32e7 | – | – | 2.19e7 | – |
| BORCS6 | DRSC08514 | 3.75e7 | 4.20e7 | – | 1.93e7 | 1.95e7 |
| Phae1 | DRSC02554 | 3.44e7 | 2.65e7 | – | 1.54e7 | 1.27e7 |
| Kmn1 | DRSC19666 | 2.52e7 | 3.19e7 | – | 1.34e7 | 1.86e7 |
| stai | DRSC02920 | 3.82e7 | 3.72e7 | – | 1.90e7 | 1.62e7 |
| stai | DRSC22235 | 3.46e7 | 8.28e7 | – | 1.84e7 | 3.02e7 |
| CG10996 | DRSC19363 | 2.23e7 | 2.25e7 | – | 1.16e7 | 1.14e7 |
| shu | DRSC04484 | 2.71e7 | – | – | 1.29e7 | – |
| MED23 + CG3700 | DRSC04406 | 3.88e7 | 4.53e7 | – | 2.00e7 | 2.19e7 |
| MED23 + CG3700 | DRSC04407 | 3.91e7 | – | – | 1.86e7 | – |
| CG5418 | DRSC02857 | 4.48e7 | 2.78e7 | – | 1.85e7 | 1.29e7 |
| FLASH | DRSC06872 | 4.05e7 | 2.07e7 | – | 1.88e7 | 1.11e7 |
| CG32679 | DRSC17644 | 3.52e7 | 4.12e7 | – | 1.70e7 | 1.92e7 |
| CG7791 | DRSC04891 | 3.64e7 | – | – | 1.97e7 | – |
| beat-VII | DRSC13780 | 6.02e7 | 3.84e7 | – | 2.21e7 | 2.07e7 |
| beat-VII | DRSC14743 | 2.38e7 | 3.97e7 | – | 1.29e7 | 1.77e7 |
| beat-VII | DRSC14744 | 2.47e7 | 3.82e7 | – | 1.29e7 | 1.63e7 |
| beat-VII | DRSC22825 | 3.08e7 | 3.97e7 | – | 1.42e7 | 1.87e7 |
| CG9822 | DRSC04568 | 5.04e7 | 4.28e7 | – | 2.64e7 | 2.07e7 |
| Cyp6w1 | DRSC04909 | 3.89e7 | – | – | 1.93e7 | – |
| CG8197 | DRSC07105 | 3.38e7 | 3.61e7 | – | 1.55e7 | 1.71e7 |
| Loxl1 | DRSC14303 | 3.43e7 | 3.90e7 | 2.1 | 1.61e7 | 1.63e7 |
| HP6 | DRSC00471 | 2.86e7 | 2.83e7 | – | 1.42e7 | 1.36e7 |
| Alp11 | DRSC20080 | 2.84e7 | 3.40e7 | – | 1.55e7 | 1.46e7 |
| CG14070 | DRSC02373 | 3.56e7 | 4.01e7 | – | 1.54e7 | 1.76e7 |
| CG15375 | DRSC18045 | 2.51e7 | 3.19e7 | – | 1.28e7 | 1.44e7 |
| CG32037 | DRSC10363 | 2.52e7 | 3.81e7 | – | 1.30e7 | 1.70e7 |
| CG14367 | DRSC14829 | 2.95e7 | 4.67e7 | – | 1.47e7 | 6.02e7 |
| unc-5 | DRSC05545 | 4.63e7 | 4.07e7 | – | 2.21e7 | 1.79e7 |
| unc-5 | DRSC07711 | 3.76e7 | 3.92e7 | – | 1.97e7 | 1.88e7 |
| unc-5 | DRSC07712 | 3.33e7 | 3.35e7 | – | 1.83e7 | 1.61e7 |
| CG30447 | DRSC05820 | 2.65e7 | 6.26e7 | – | 1.33e7 | 2.88e7 |
| CG7231 | DRSC03034 | 2.94e7 | 4.22e7 | – | 1.51e7 | 1.82e7 |
| Pp1-Y2 | DRSC21608 | 2.52e7 | 3.46e7 | – | 1.31e7 | 1.57e7 |
| CG42826 | DRSC10682 | 3.99e7 | 3.92e7 | – | 1.91e7 | 1.62e7 |
| CG34174 | DRSC00101 | 1.86e7 | 2.35e7 | – | 1.05e7 | 1.16e7 |
| CG44000 + CG33995 + CG44001 | DRSC00853 | 3.36e7 | 4.03e7 | – | 1.88e7 | 1.84e7 |
| CG44000 + CG33995 + CG44001 | DRSC02898 | 4.17e7 | – | – | 1.69e7 | – |
| dlg1 | DRSC18895 | 1.50e7 | 2.26e7 | – | 8.08e6 | 1.09e7 |
| dlg1 | DRSC18896 | 1.75e7 | 3.33e7 | – | 8.90e6 | 1.48e7 |
| dlg1 | DRSC19767 | 2.87e7 | 4.53e7 | – | 1.51e7 | 2.22e7 |
| dlg1 | DRSC20324 | 3.03e7 | 2.80e7 | – | 1.41e7 | 1.31e7 |
| CG4282 | DRSC06865 | 3.61e7 | 3.75e7 | – | 1.70e7 | 1.75e7 |
